{"source": "the supplement of paper PMC3334620", "note": "The full ranking holds about 33,000 sequences; the median of “E-score (-0.5 to 0.5)” is about -0.015, and the highest 2% start at about 0.3. The list shows a part of the results."}
{"target": "T1, Abf1 (UniProt P14164)", "T1 sequence": "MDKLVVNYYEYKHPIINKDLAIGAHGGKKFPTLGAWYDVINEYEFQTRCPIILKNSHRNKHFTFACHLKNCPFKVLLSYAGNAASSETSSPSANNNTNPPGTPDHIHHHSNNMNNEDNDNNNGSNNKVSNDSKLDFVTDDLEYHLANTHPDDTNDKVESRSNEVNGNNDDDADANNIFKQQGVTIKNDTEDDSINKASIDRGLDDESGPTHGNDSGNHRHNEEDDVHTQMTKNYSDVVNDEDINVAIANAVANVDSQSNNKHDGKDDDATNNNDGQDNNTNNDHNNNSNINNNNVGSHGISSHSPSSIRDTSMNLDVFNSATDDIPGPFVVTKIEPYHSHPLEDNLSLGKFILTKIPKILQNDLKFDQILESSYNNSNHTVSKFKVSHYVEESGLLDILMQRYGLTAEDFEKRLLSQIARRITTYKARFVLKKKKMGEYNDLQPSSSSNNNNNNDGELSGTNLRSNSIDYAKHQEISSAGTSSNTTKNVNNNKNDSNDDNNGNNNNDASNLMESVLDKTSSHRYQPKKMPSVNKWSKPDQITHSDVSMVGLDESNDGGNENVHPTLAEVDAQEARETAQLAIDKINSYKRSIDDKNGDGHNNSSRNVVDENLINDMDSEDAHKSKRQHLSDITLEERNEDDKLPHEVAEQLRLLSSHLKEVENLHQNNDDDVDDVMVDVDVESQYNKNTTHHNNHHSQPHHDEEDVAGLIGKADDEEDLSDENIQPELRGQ", "test": "PBM E-score (8-mer binding enrichment) (E-score (-0.5 to 0.5)); higher = stronger / more preferred TF binding", "settings": "protein concentration: 200 nM; construct: GST-full length", "method_in_brief": "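For each ungapped eight-base word taken together with its reverse complement, the Universal PBM Analysis Suite assigned an E-score. Binding data came from GST-tagged yeast transcription factors, applied at about 100-200 nM, on universal all-10-mer Agilent arrays made double-stranded by primer extension. Fluorescent anti-GST marked bound protein, and scans were normalised with masliner.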"}
{"sequence": "CAAGGATA", "PBM E-score": -0.0997}
{"sequence": "CACGGTAG", "PBM E-score": 0.219}
{"sequence": "CCCCTACG", "PBM E-score": -0.208}
{"sequence": "CCAGCTTC", "PBM E-score": 0.0146}
{"sequence": "CGCACTAC", "PBM E-score": 0.0804}
{"sequence": "CCCAAAAC", "PBM E-score": 0.0038}
{"sequence": "AGCCCCTC", "PBM E-score": -0.206}
{"sequence": "CACTAGTG", "PBM E-score": 0.214}
{"sequence": "CATTATGA", "PBM E-score": 0.0769}
{"sequence": "GTCGTTAA", "PBM E-score": 0.296}
{"sequence": "ATCGCTTA", "PBM E-score": 0.194}
{"sequence": "GACGGATA", "PBM E-score": 0.157}
{"sequence": "AGATTCGG", "PBM E-score": -0.0437}
{"sequence": "AGCACATC", "PBM E-score": -0.0371}
{"sequence": "TGCACTAA", "PBM E-score": 0.123}
{"sequence": "CGGGGGAG", "PBM E-score": -0.242}
{"sequence": "ACTATTGA", "PBM E-score": 0.117}
{"sequence": "GAGTATGA", "PBM E-score": 0.0292}
{"sequence": "AGTGGATA", "PBM E-score": 0.0619}
{"sequence": "TCCGATAA", "PBM E-score": -0.0901}
{"sequence": "AACGTGGG", "PBM E-score": -0.095}
{"sequence": "ACGGCGCC", "PBM E-score": 0.184}
{"sequence": "GGATTGTA", "PBM E-score": -0.0229}
{"sequence": "CAATGTTC", "PBM E-score": -0.12}
{"sequence": "CCTCTCGA", "PBM E-score": -0.294}
{"sequence": "AGCATCCG", "PBM E-score": -0.122}
{"sequence": "ATGCTCTG", "PBM E-score": -0.0418}
{"sequence": "CTACGAAG", "PBM E-score": 0.215}
{"sequence": "GGGACTTA", "PBM E-score": 0.0443}
{"sequence": "ACCTACGT", "PBM E-score": -0.0655}
{"sequence": "CAACCCTG", "PBM E-score": -0.133}
{"sequence": "GCGCATGA", "PBM E-score": -0.152}
{"sequence": "CATGCACA", "PBM E-score": 0.0374}
{"sequence": "ATCGCACA", "PBM E-score": 0.198}
{"sequence": "CGACAGGA", "PBM E-score": 0.0746}
{"sequence": "AAGCTTAG", "PBM E-score": 0.147}
{"sequence": "ACCGATCG", "PBM E-score": -0.0406}
{"sequence": "AGTCATAT", "PBM E-score": 0.131}
{"sequence": "ACATTAAA", "PBM E-score": 0.101}
{"sequence": "CCTGTATA", "PBM E-score": -0.129}
{"sequence": "CGTACTCC", "PBM E-score": 0.203}
{"sequence": "CCTATTTC", "PBM E-score": 0.095}
{"sequence": "TCTGAGCA", "PBM E-score": -0.0446}
{"sequence": "ACCCTATC", "PBM E-score": -0.216}
{"sequence": "GAGACGTA", "PBM E-score": 0.182}
{"sequence": "ATTTGGAG", "PBM E-score": -0.164}
{"sequence": "GCGCGGTA", "PBM E-score": 0.0645}
{"sequence": "AGGGATTG", "PBM E-score": -0.0744}
{"sequence": "GTCAGCCA", "PBM E-score": -0.0164}
{"sequence": "ACACTACC", "PBM E-score": -0.192}
{"sequence": "TACCTCCA", "PBM E-score": -0.0247}
{"sequence": "AGTGCTAA", "PBM E-score": -0.0243}
{"sequence": "GGGGCTAA", "PBM E-score": -0.29}
{"sequence": "GGGTGCTA", "PBM E-score": -0.118}
{"sequence": "AACCTTAA", "PBM E-score": 0.127}
{"sequence": "CAACAAGC", "PBM E-score": -0.119}
{"sequence": "ATATAGGC", "PBM E-score": 0.106}
{"sequence": "ACCGAAAA", "PBM E-score": 0.101}
{"sequence": "CCACGTGA", "PBM E-score": -0.00332}
{"sequence": "ACAGCGAG", "PBM E-score": -0.184}
{"sequence": "AAAGTCTC", "PBM E-score": 0.0822}
{"sequence": "GCAATTGC", "PBM E-score": 0.0727}
{"sequence": "TGATTTAA", "PBM E-score": 0.178}
{"sequence": "ACTTCCTA", "PBM E-score": -0.0298}
{"sequence": "CGTTAGAA", "PBM E-score": 0.293}
{"sequence": "GCAGCACC", "PBM E-score": -0.273}
{"sequence": "AGCGCGTC", "PBM E-score": -0.175}
{"sequence": "ACACTAAA", "PBM E-score": 0.0252}
{"sequence": "GGCCGCAA", "PBM E-score": -0.168}
{"sequence": "CGAACGTA", "PBM E-score": 0.212}
{"sequence": "AATGTCGT", "PBM E-score": 0.302}
{"sequence": "CTGGGTCC", "PBM E-score": -0.354}
{"sequence": "CCATGTCC", "PBM E-score": -0.07}
{"sequence": "GCGAACCC", "PBM E-score": -0.0661}
{"sequence": "AGAAAACT", "PBM E-score": -0.0446}
{"sequence": "AGAGACAC", "PBM E-score": -0.173}
{"sequence": "ACGTAAAT", "PBM E-score": 0.113}
{"sequence": "ACGGACCC", "PBM E-score": -0.16}
{"sequence": "CATATTGA", "PBM E-score": -0.00256}
{"sequence": "AGCCCGGA", "PBM E-score": -0.23}
{"sequence": "CATCTAAC", "PBM E-score": 0.0366}
{"sequence": "CGGTGCTA", "PBM E-score": -0.0421}
{"sequence": "CAAACGCA", "PBM E-score": -0.126}
{"sequence": "CATTGGAG", "PBM E-score": -0.018}
{"sequence": "GTAACTAA", "PBM E-score": -0.0125}
{"sequence": "CGGGTGCA", "PBM E-score": -0.26}
